Patent US7718651B2, “Inhibitors of FtsZ and uses thereof” (priority 2002, dated 2010)

The compounds below were run on Vero cells (assay: Cytotoxicity in Vero cells (MTS assay)). Settings: not given.
Assay type: cell-based

| Structure (SMILES) | SI (IC50/MIC99) |
| --- | --- |
| CCOC(=O)Nc1cc2c(c(N)n1)N=C(c1ccccc1)CCN2 [SRI-7614, (1-Amino-8-phenyl-6,7-dihydro-5H-2,5,9-triaza-benzocyclohepten-3-yl)-carbamic acid ethyl ester] | > 32 |
| CCOC(=O)Nc1cc(NC(C)CCCN(CC)CC)c2nc(-c3ccccc3)c(-c3ccccc3)nc2n1 (centres unmarked) [SRI-3072, [8-(4-Diethylamino-1-methyl-butylamino)-2,3-diphenyl-pyrido[2,3-b]pyrazin-6-yl]-carbamic acid ethyl ester] | 42.0 |

Same assay, conditions: IC50/MIC, Table 8

| Structure (SMILES) | SI |
| --- | --- |
| CCCCC1=Nc2c(cc(NC(=O)OCC)nc2N)NC1C (centres unmarked) [Compound A41] | 0.12 |
| CCOC(=O)Nc1cc2[nH]c(-c3ccc4c(c3)OCO4)nc2c(NC(c2ccccc2)c2ccccc2)n1 [Compound A39] | >128.21 |
| C[C@@H]1Nc2cc(NC(=O)OCc3ccccc3)nc(N)c2N=C1c1ccccc1 [Compound A26] | 0.12 |
| CCOC(=O)Nc1cc(NC(C)CCCN(CC)CC)c2nc(-c3ccccc3)c(-c3ccccc3)nc2n1.Cl (centres unmarked) [Compound A21] | 83 |
| CCOC(=O)Nc1cc2[nH]c(-c3ccc(OC)cc3)nc2c(NC(c2ccccc2)c2ccccc2)n1 [Compound A46] | 60.47 |
| CCOC(=O)Nc1cc(NC(C)CCCN(CC)CC)c2nc(-c3ccccc3)c(-c3ccccc3)nc2n1 (centres unmarked) [Compound A1] | 21.5 |
| CCOC(=O)Nc1cc2[nH]c(-c3ccccc3)nc2c(NC(c2ccccc2)c2ccccc2)n1 [Compound A52] | >16 |
| CC(C)OC(=O)Nc1cc2c(c(N)n1)N=C(c1ccccc1)[C@H](C)N2 [Compound A11] | 0.12 |
| CCOC(=O)Nc1cc2c(c(N)n1)N=C(CN(C)c1ccccc1)CN2 [Compound A53] | <0.03 |
| CCOC(=O)Nc1cc(NC(C)CCCN(CC)CC)c2nc(-c3ccc(Cl)cc3)cnc2n1.Cl.Cl (centres unmarked) [Compound A34] | 0.36 |
| CCOC(=O)Nc1cc(NCc2ccc(S(N)(=O)=O)cc2)c2nc(-c3ccccc3)c(-c3ccccc3)nc2n1 [Compound A33] | >16 |
| CCOC(=O)Nc1cc2c(c(N)n1)N=C(c1ccc(OC)cc1)C(C)N2 (centres unmarked) [Compound A44] | 0.12 |
| CCOC(=O)Nc1cc(N)c(N)c(NC(C)C(O)c2ccccc2)n1 (centres unmarked) [Compound A10] | >16 |
| CCOC(=O)Nc1cc2c(c(N)n1)N=C(c1ccc3c(c1)OCO3)[C@H](C)N2 [Compound A12] | 0.12 |
| CCOC(=O)Nc1cc2c(c(N)n1)N=C(c1ccccc1)CCN2 [Compound A2] | >32 |
| CCOC(=O)Nc1cc(NC(C)CCCN(CC)CC)c2ncc(-c3ccc(OC)cc3)nc2n1.Cl (centres unmarked) [Compound A22] | 5.58 |
| CCOC(=O)Nc1cc(NC(C)C(O)COc2ccccc2)c(N)c(N)n1 (centres unmarked) [Compound A35] | >80 |
| CCOC(=O)Nc1cc(NC(C)CCCN(CC)CC)c2ncc(-c3ccc(Cl)c(Cl)c3)nc2n1.Cl.Cl (centres unmarked) [Compound A7] | 0.6 |

Same assay, conditions: Vero IC50 / H37Rv MIC99, Table 3

| Structure (SMILES) | SI (IC50:MIC99) |
| --- | --- |
| CCOC(=O)Nc1cc2c(c(N)n1)N=C(c1ccccc1)CCN2 [SRI-7614, (1-Amino-8-phenyl-6,7-dihydro-5H-2,5,9-triaza-benzocyclohepten-3-yl)-carbamic acid ethyl ester] | >32 |
| CCOC(=O)Nc1cc(NCc2ccc(S(N)(=O)=O)cc2)c2nc(-c3ccccc3)c(-c3ccccc3)nc2n1 [Compound 4427-026-15, [2,3-Diphenyl-8-(4-sulfamoyl-benzylamino)-pyrido[2,3-b]pyrazin-6-yl]-carbamic acid ethyl ester] | >16 |
| CCOC(=O)Nc1cc(NC(C)C(O)COc2ccccc2)c(N)c(N)n1 (centres unmarked) [SRI-7405, [5,6-Diamino-4-(2-hydroxy-1-methyl-3-phenoxy-propylamino)-pyridin-2-yl]-carbamic acid ethyl ester] | >80 |
| CCOC(=O)Nc1cc(NC(C)CCCN(CC)CC)c2nc(-c3ccccc3)c(-c3ccccc3)nc2n1 (centres unmarked) [SRI-3072, [8-(4-Diethylamino-1-methyl-butylamino)-2,3-diphenyl-pyrido[2,3-b]pyrazin-6-yl]-carbamic acid ethyl ester] | 42 |

Same assay, conditions: ratio IC50 / MIC

| Structure (SMILES) | SI |
| --- | --- |
| CCOC(=O)Nc1cc(NC(C)CCCN(CC)CC)c2ncc(-c3ccc(C(F)(F)F)cc3)nc2n1 (centres unmarked) [Compound A23] | 0.26 |
| CCOC(=O)Nc1cc(NC(C)CCCN(CC)CC)c2nc(-c3ccc(F)cc3)cnc2n1 (centres unmarked) [Compound A25] | 0.54 |
